The campaign covered roughly 330,000 compounds. About 7,700 (2.3%) were called active. Inconclusive means that the source gave no clear call. Such entries were picked first, then a sample of the others. Calls follow the shape of the dose curve; as a rule, active = well fitted inhibition curve with a large enough effect; inconclusive = small, poorly fitted or top-dose-only effect, or effect the other way; inactive = flat fitted curve, though single readings scatter. Potencies of inconclusive entries are doubtful fits and often do not repeat.
test: qHTS screen for small molecules that inhibit ELG1-dependent DNA repair in human embryonic kidney (HEK293T) cells expressing luciferase-tagged ELG1; conditions: HEK293T ELG1-luciferase reporter, luminescence, 16 h, DNA damage induced by 5-fluorouridine; series mostly up to 46.1 µM; also: nearly all actives have a fitted effect of over 55% in size
Summary of the method: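 Reporter activity after DNA damage by 5-fluorouridine is monitored. Compound-treated cells incubate 16 hr at 37 °C, then ONE-Glo is added for 30 min before luminescence reading.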
Potency is read from the fitted curve at half-maximal effect.

| SMILES | Potency |
| --- | --- |
| CSCCC(NS(=O)(=O)c1cccc(C(F)(F)F)c1)C(=O)N(C)CCOc1ccc(Cl)cc1 (stereo not given) | inconclusive: 35.5 µM [inhibitor, single point] |
| CCn1c(Cc2ccccc2)nnc1SCC(=O)Nc1ccc(N2CCOCC2)c(Cl)c1 | inactive |
| COc1ccccc1NC(=O)C(=O)NCC1COc2ccccc2O1 (stereo not given) | inactive |
| O=C(CCn1cnc2ccccc21)N/N=C/c1ccccc1O | inconclusive: 23.1 µM [activator, single point] |
| CCOc1cc(/C=C2\SC(=NC)N(C)C2=O)c(Br)cc1OC(C)=O | inactive |
| CCN(CC)S(=O)(=O)c1ccc(C(=O)NNC(=O)c2cccs2)cc1 | inactive |
| CCn1c(CNC(=O)COc2ccc(C(C)C)cc2)nnc1SCC(=O)Nc1cc(F)ccc1C | inconclusive: 18.4 µM [inhibitor, single point] |
| N/C(=N\c1nc(CSc2nnnn2-c2ccccc2)cc(=O)[nH]1)Nc1ccccc1 | inconclusive: 14.6 µM [inhibitor, partial curve] |
| CCCn1c(SCC(=O)NNC(=O)c2ccc(C)cc2)nnc1C(C)C | inactive |
| CN1CCN(C(CNS(=O)(=O)c2ccc([N+](=O)[O-])cc2)c2ccc(F)cc2)CC1 (stereo not given) | inactive |
| O=C1CCc2cc(S(=O)(=O)NCCC(=O)N3CCN(c4cccc(Cl)c4)CC3)ccc2N1 | inconclusive: 29.1 µM [inhibitor, partial curve, poor fit] |
| COc1cccc(C(Nc2ccccn2)c2c(NC(=O)c3ccco3)sc(C)c2C)c1 (stereo not given) | inconclusive: 23.1 µM [inhibitor, single point] |
| O=C(NNC(=O)c1ccccc1O)c1cc2ccccc2o1 | inconclusive: 20.6 µM [activator, single point] |
| COc1ccc(/C=C(\C#N)C(=O)Nc2cccc(C)n2)cc1 | inconclusive: 20.6 µM [activator, single point] |
| CCOC(=O)c1cnc(-c2ccccc2)[nH]c1=O | inactive |
| CCCCN(C(=O)c1cc2c(s1)CCCCC2)c1c(N)n(CC(C)C)c(=O)[nH]c1=O | inactive |
| COc1ccc(CN2CC(C(=O)NCCCN3CCN(C)CC3)CC2=O)cc1 (stereo not given) | inconclusive: 29.1 µM [activator, partial curve, poor fit] |
| O=C(O)c1cccnc1Nc1ccc(Cl)cc1 | inconclusive: 16.4 µM [activator, single point] |
| CC(=O)Cc1nsc(NC(=O)c2ccc(-c3ccc(Cl)c(Cl)c3)o2)n1 | inactive |
| Cc1c(Br)c(O)c(Br)c(O)c1/C=N/n1c(-c2ccccc2)n[nH]c1=S | inactive |
| O=C(CN1CCC(n2nnc3cc(C(F)(F)F)ccc32)CC1)Nc1ccc2c(c1)CCC2 | inconclusive: 18.4 µM [inhibitor, single point] |
| O=C(COC(=O)c1ccc(NS(=O)(=O)c2ccc(Br)s2)cc1)NC1CCCC1 | inconclusive: 32.6 µM [inhibitor, partial curve, poor fit] |
| COc1ccccc1N1CCN(C2CCCN(C(=O)c3ccccn3)C2)CC1 (stereo not given) | inactive |

Part of the list above in order of heavy-atom count, descending:

| SMILES | Potency |
| --- | --- |
| O=C(CN1CCC(n2nnc3cc(C(F)(F)F)ccc32)CC1)Nc1ccc2c(c1)CCC2 | inconclusive: 18.4 µM [inhibitor, single point] |
| CCOc1cc(/C=C2\SC(=NC)N(C)C2=O)c(Br)cc1OC(C)=O | inactive |
| COc1ccc(/C=C(\C#N)C(=O)Nc2cccc(C)n2)cc1 | inconclusive: 20.6 µM [activator, single point] |

(next part)

| SMILES | Potency |
| --- | --- |
| C=CCNC(=S)NNC(=O)CCC(O)CCCCC (stereo not given) | inactive |
| CCN(C(=O)c1cc2c(=O)n3ccccc3nc2s1)C1CCCCC1 | inconclusive: 16.4 µM [activator, single point] |
| CC(=O)Nc1ccc(S(=O)(=O)NCCSCc2ccc(Cl)cc2Cl)cc1 | inconclusive: 29.1 µM [inhibitor, partial curve, poor fit] |
| COc1ccc(Cc2noc(CN3CCCC(OCc4ccccn4)C3)n2)cc1OC (stereo not given) | inactive |
| CN(C)c1ccc(/C=C/c2cc[n+]([O-])cc2)cc1 | inconclusive: 12.6 µM [activator, partial curve, poor fit] |
| Clc1ccc(-n2cc(COCc3ccccc3)nn2)cc1 | inconclusive: 4.11 µM [activator, full curve] |
| COc1cc(CNc2ccc3[nH]c(=O)[nH]c3c2)ccc1OCc1ccccc1 | inconclusive: 1.83 µM [inhibitor, full curve, poor fit] |
| O=C(CSc1nnc(-c2ccccc2Cl)o1)Oc1ccc(Br)cc1 | inconclusive: 14.6 µM [activator, partial curve, poor fit] |
| Cc1cccc(/C=N/NC(=O)c2cc(Br)ccc2O)n1 | inconclusive: 20.6 µM [activator, single point] |
| CCOC(=O)c1sc(NC(=O)c2cc3n(n2)C(C(F)(F)F)CC(c2cccs2)N3)c(C(=O)OCC)c1C (stereo not given) | inconclusive: 2.31 µM [inhibitor, single point] |
| CCOC(=O)c1cnc(SCc2ccc(C)cc2)nc1N | inconclusive: 11.2 µM [activator, partial curve] |
| c1ccc(C(c2ccccc2)c2noc(CN3CCN(C4CCCC4)CC3)n2)cc1 | inactive |
| CCC1=NN(C(=O)c2ccc(Br)cc2)C(O)(c2ccc(C)cc2)C1 (stereo not given) | inactive |
| CC(/C=C/c1ccccc1)NC(N)=O (stereo not given) | inconclusive: 29.1 µM [inhibitor, single point] |
| CCOC(=O)N1CCN(c2ncc(C(F)(F)F)cc2Cl)CC1 | inactive |
| CCCCn1c(SCc2nnc(-c3ccccc3)o2)nc2c1c(=O)n(C)c(=O)n2C | inactive |
| COC(=O)[C@]1(C)N[C@H](CN(C)S(=O)(=O)c2ccc(OC(F)(F)F)cc2)[C@@H]2C(=O)N(C)C(=O)[C@@H]21 | inactive |
| CCOC(=O)c1cnc(SC)nc1Oc1cccc(NS(=O)(=O)c2ccccc2)c1 | inconclusive: 18.4 µM [inhibitor, single point] |
| O=C(NC(=S)Nc1ccccc1Cl)c1csnn1 | inconclusive: 14.6 µM [activator, partial curve, poor fit] |
| COc1ccc(Nc2c(-c3ccc(C)cc3)nc3cnccn23)cc1 | inactive |
| CC(=O)Nc1ccc2c(COC(=O)[C@@H](NS(=O)(=O)c3ccc(C)cc3)C(C)C)cc(=O)oc2c1 | inconclusive: 29.1 µM [inhibitor, single point] |
| CSc1nc(C)cc(Oc2ccc(=O)n(C)n2)n1 | inconclusive: 8.2 µM [activator, partial curve, poor fit] |
